Test results taken from patent US10201523B2, “Use of wilforlide A for overcoming chemotherapy resistance” (WESTERN UNIVERSITY OF HEALTH SCIENCES, priority 2013, dated 2019).
“And” between values parts separate entries of the source, which are not always exact repeats. Equal values may be shown once. Further values from the same series stand in other lists.

Tested on: PC3
Assay: SRB cell viability assay, docetaxel with/without wilforlide A pretreatment
Settings: background = 0.044

## CC(=O)O[C@@]12CO[C@@H]1C[C@H](O)[C@@]1(C)C(=O)[C@H](O)C3=C(C)[C@@H](OC(=O)[C@H](O)[C@@H](NC(=O)OC(C)(C)C)c4ccccc4)C[C@@](O)([C@@H](OC(=O)c4ccccc4)[C@H]21)C3(C)C [docetaxel]
No wilforlide A pre-Tx (control of Table 8), docetaxel 0.001 nM 72 h
  A at 565 nm: 2.050 and 2.018 and 1.900
No wilforlide A pre-Tx (control of Table 8), docetaxel 0.1 nM 72 h
  A at 565 nm: 1.999 and 2.079 and 1.964
No wilforlide A pre-Tx (control of Table 8), docetaxel 0.333 nM 72 h
  A at 565 nm: 1.864 and 1.989 and 1.823
No wilforlide A pre-Tx (control of Table 8), docetaxel 1 nM 72 h
  A at 565 nm: 1.379 and 1.513 and 1.358
No wilforlide A pre-Tx (control of Table 8), docetaxel 3.33 nM 72 h
  A at 565 nm: 0.885 and 0.969 and 0.877
No wilforlide A pre-Tx (control of Table 8), docetaxel 10 nM 72 h
  A at 565 nm: 0.460 and 0.475 and 0.437
No wilforlide A pre-Tx (control of Table 8), docetaxel 33.3 nM 72 h
  A at 565 nm: 0.366 and 0.328
No wilforlide A pre-Tx (control of Table 8), docetaxel 100 nM 72 h
  A at 565 nm: 0.348 and 0.341
Wilforlide A 2.5 μg/ml pre-Tx, docetaxel 0.001 nM 72 h
  A at 565 nm: 1.702 and 1.735 and 1.819
Wilforlide A 2.5 μg/ml pre-Tx, docetaxel 0.1 nM 72 h
  A at 565 nm: 1.738 and 1.806 and 1.812
Wilforlide A 2.5 μg/ml pre-Tx, docetaxel 0.333 nM 72 h
  A at 565 nm: 1.640 and 1.632
Wilforlide A 2.5 μg/ml pre-Tx, docetaxel 1 nM 72 h
  A at 565 nm: 1.206 and 1.259
Wilforlide A 2.5 μg/ml pre-Tx, docetaxel 3.33 nM 72 h
  A at 565 nm: 0.779 and 0.717
Wilforlide A 2.5 μg/ml pre-Tx, docetaxel 10 nM 72 h
  A at 565 nm: 0.425 and 0.381
Wilforlide A 2.5 μg/ml pre-Tx, docetaxel 33.3 nM 72 h
  A at 565 nm: 0.333 and 0.317
Wilforlide A 2.5 μg/ml pre-Tx, docetaxel 100 nM 72 h
  A at 565 nm: 0.330 and 0.316
